Values from PubChem BioAssay AID1053208 (Peter MacCallum Cancer Centre, 2014)

- Aim: 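Find knock-downs that sensitise mouse osteosarcoma cells to doxorubicin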 (primary screen)
- Cell system: mouse osteosarcoma cells, early-passage culture from an engineered mouse model of fibroblastic bone tumour
- Reagent: siRNA pool against mouse genes, 40 nM
- Duration: about 120 h (48 h before drug, then 72 h with drug)
- Challenge: doxorubicin 100 nM for 72 h, roughly 30-40% inhibitory dose
- Measured: 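Luminescent ATP signal taken as viability with or without 100 nM doxorubicin for 72 h; mean of two wells set against non-targeting siRNA and turned into robust z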
- Scale: viability z-score with doxorubicin: higher = more viable cells under doxorubicin; viability z-score without drug: higher = more viable cells with knock-down alone
- Rule for the call: 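Called active if knock-down leaves viability unchanged without drug (z within -2 to 2) but lowers it with doxorubicin (z at or under -2)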
The whole screen tested about 17,000 reagents; this is a part drawn at random. 788 of all reagents (4.7%) were called active. 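Calls rest on z-score classes alone; an extra cut-off of viability at most 70% of control was not applied to them.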 The numbers tell different reagents against one gene apart. Not all columns of the deposit are shown.

Target gene | reagent | combined z-score class | viability z-score with doxorubicin | viability z-score without drug | outcome
Prss48 | 1 | no change with or without drug | 0.22 | -0.34 | inactive
Trav13-5 | 1 | no change with or without drug | -1.12 | 0.51 | inactive
Stx3 | 1 | no change with or without drug | -0.11 | -0.51 | inactive
Pnoc | 1 | no change with or without drug | -0.34 | -0.17 | inactive
Yipf3 | 1 | high cell count without drug only | 0.67 | 2.02 | inactive
Tada1 | 1 | no change with or without drug | 0.67 | 0.84 | inactive
Ccnb1 | 1 | no change with or without drug | -0.79 | 0.17 | inactive
Or4f60 | 1 | no change with or without drug | 1.12 | -0.17 | inactive
Efl1 | 1 | no change with or without drug | 0.11 | -0.17 | inactive
Slc35h1 | 1 | no change with or without drug | -1.12 | 0.51 | inactive
Txnip | 1 | no change with or without drug | 0.45 | 0.17 | inactive
Naca | 1 | no change with or without drug | 0 | -1.01 | inactive
Or6c214 | 1 | no change with or without drug | -0.22 | -0.67 | inactive
Ephb6 | 1 | no change with or without drug | 0.22 | 0.34 | inactive
Cmtm1 | 1 | no change with or without drug | -1.35 | -0.17 | inactive
Mix23 | 1 | no change with or without drug | 0 | 0.34 | inactive

In a second layout: entries from further up
| Target gene | reagent | combined z-score class | viability z-score with doxorubicin | viability z-score without drug | outcome |
| --- | --- | --- | --- | --- | --- |
| Txnip | 1 | no change with or without drug | 0.45 | 0.17 | inactive |
| Naca | 1 | no change with or without drug | 0 | -1.01 | inactive |
| Or6c214 | 1 | no change with or without drug | -0.22 | -0.67 | inactive |

Additional records:
Target gene | reagent | combined z-score class | viability z-score with doxorubicin | viability z-score without drug | outcome
Hyal1 | 1 | no change with or without drug | -0.67 | -0.84 | inactive
Dnajc9 | 1 | no change with or without drug | 0.9 | 1.18 | inactive
Or2r11 | 1 | no change with or without drug | -0.79 | -0.67 | inactive
Snn | 1 | no change with or without drug | 0 | -0.17 | inactive
Vmn2r10 | 1 | low cell count with doxorubicin only | -2.59 | -1.01 | active
Pglyrp2 | 1 | no change with or without drug | -1.8 | -1.85 | inactive
Or2t48 | 1 | no change with or without drug | 0 | -0.84 | inactive
Trpc2 | 1 | low cell count with doxorubicin only | -2.02 | -0.17 | active
Eif4a1 | 1 | low cell count with and without drug | -4.72 | -2.19 | inactive
Dnajc2 | 1 | no change with or without drug | -0.11 | 0 | inactive
Dnajc2 | 2 | no change with or without drug | -1.01 | 0.34 | inactive
Vrk1 | 1 | low cell count with doxorubicin only | -2.47 | 0.67 | active
Or10v5 | 1 | no change with or without drug | 0.45 | 0.17 | inactive
Vmn2r29 | 1 | no change with or without drug | 0 | -0.17 | inactive
Nadk | 1 | no change with or without drug | -1.12 | -1.18 | inactive
Psmc5 | 1 | low cell count with and without drug | -8.54 | -7.76 | inactive
Krtap15-1 | 1 | low cell count with doxorubicin only | -3.04 | -1.35 | active
Nfkbiz | 1 | no change with or without drug | -0.11 | -0.51 | inactive
Mtmr2 | 1 | no change with or without drug | 1.12 | -0.17 | inactive
Rassf9 | 1 | no change with or without drug | 1.57 | 1.52 | inactive
Zfp932 | 1 | high cell count with doxorubicin only | 2.02 | 1.69 | inactive
D030056L22Rik | 1 | no change with or without drug | 0 | 1.01 | inactive
Pdpn | 1 | no change with or without drug | 0.67 | -0.17 | inactive
Rabggta | 1 | no change with or without drug | 0.67 | -0.17 | inactive
Mrgpra2b | 1 | low cell count with doxorubicin only | -2.02 | -1.85 | active
F7 | 1 | low cell count with doxorubicin only | -2.02 | 0.51 | active
Nbeal1 | 1 | high cell count without drug only | 1.24 | 2.19 | inactive
Ctsf | 1 | no change with or without drug | 0 | -1.52 | inactive
Cplx1 | 1 | no change with or without drug | 1.46 | 0.34 | inactive
Crabp2 | 1 | high cell count with doxorubicin only | 2.36 | 1.18 | inactive
Hoxd4 | 1 | low cell count with doxorubicin only | -2.47 | -0.51 | active
Krt20 | 1 | no change with or without drug | 0 | 0.84 | inactive
Son | 1 | low cell count with and without drug | -3.15 | -2.36 | inactive
Rassf7 | 1 | no change with or without drug | 1.01 | 0.51 | inactive
